Data reported in paper PMC3846258 (ACS chemical biology, 2013).

Target: BRDT (first bromodomain) (Homo sapiens, UniProt Q58F21)
Test: X-ray co-crystal structure, […] Å
Format: binding

For CCc1cnn2c(NCc3ccc[n+]([O-])c3)cc(N3CCCC[C@H]3CCO)nc12 [dinaciclib], the Kd was 37 µM.
